Assay results published in the supplement of paper PMC10060354, “Discovery of a small molecule ligand of FRS2 that inhibits invasion and tumor growth” (Cellular Oncology, 2022).
Many values rest on one well or one pass, so single values are uncertain.

Protein sequences, listed by entry. Tags and fused reporters are not part of them. Lines headed by an entry give the natural chain unless they say otherwise; changes in a name come on top.
UniProt Q96JP5: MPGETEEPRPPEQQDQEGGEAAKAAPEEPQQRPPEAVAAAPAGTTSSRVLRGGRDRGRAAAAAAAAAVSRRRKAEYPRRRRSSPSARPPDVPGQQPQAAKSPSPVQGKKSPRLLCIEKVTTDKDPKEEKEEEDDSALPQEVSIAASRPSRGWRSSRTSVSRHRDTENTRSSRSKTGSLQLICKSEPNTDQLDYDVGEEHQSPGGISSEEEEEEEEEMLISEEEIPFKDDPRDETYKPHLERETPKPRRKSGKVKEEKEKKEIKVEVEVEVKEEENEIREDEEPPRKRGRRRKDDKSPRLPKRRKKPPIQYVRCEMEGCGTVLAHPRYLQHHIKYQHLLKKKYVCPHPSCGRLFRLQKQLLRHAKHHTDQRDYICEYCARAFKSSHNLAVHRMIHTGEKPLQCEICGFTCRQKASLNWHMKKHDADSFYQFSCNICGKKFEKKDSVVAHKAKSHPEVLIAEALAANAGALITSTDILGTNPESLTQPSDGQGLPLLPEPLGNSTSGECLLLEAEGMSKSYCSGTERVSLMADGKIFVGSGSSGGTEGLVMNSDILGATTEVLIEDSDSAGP
UniProt Q15404: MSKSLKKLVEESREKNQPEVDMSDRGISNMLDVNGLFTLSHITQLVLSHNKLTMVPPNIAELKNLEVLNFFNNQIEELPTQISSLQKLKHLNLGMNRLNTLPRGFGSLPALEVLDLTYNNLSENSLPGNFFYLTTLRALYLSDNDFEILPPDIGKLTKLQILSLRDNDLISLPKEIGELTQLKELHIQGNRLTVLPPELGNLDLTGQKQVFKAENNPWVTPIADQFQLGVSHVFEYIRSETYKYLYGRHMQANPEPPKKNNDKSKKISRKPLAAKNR
UniProt O75351, whole entry: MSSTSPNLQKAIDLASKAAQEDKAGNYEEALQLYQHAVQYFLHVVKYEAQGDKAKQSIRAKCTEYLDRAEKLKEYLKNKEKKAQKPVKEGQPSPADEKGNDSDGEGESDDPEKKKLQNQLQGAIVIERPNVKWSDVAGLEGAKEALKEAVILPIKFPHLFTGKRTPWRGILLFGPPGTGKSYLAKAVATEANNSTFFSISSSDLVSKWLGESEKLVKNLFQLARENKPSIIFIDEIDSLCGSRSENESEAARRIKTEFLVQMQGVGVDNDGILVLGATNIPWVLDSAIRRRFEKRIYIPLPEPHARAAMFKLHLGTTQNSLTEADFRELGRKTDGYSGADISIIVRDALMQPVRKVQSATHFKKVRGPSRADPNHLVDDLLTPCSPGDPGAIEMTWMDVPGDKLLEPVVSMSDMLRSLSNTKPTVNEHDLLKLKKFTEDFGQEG
UniProt P14649: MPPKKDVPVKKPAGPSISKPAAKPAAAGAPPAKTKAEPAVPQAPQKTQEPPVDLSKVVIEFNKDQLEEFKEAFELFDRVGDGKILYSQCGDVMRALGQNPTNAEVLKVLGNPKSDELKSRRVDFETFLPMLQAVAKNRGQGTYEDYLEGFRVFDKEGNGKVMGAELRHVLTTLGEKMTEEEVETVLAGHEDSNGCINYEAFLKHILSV
UniProt P33993, whole entry: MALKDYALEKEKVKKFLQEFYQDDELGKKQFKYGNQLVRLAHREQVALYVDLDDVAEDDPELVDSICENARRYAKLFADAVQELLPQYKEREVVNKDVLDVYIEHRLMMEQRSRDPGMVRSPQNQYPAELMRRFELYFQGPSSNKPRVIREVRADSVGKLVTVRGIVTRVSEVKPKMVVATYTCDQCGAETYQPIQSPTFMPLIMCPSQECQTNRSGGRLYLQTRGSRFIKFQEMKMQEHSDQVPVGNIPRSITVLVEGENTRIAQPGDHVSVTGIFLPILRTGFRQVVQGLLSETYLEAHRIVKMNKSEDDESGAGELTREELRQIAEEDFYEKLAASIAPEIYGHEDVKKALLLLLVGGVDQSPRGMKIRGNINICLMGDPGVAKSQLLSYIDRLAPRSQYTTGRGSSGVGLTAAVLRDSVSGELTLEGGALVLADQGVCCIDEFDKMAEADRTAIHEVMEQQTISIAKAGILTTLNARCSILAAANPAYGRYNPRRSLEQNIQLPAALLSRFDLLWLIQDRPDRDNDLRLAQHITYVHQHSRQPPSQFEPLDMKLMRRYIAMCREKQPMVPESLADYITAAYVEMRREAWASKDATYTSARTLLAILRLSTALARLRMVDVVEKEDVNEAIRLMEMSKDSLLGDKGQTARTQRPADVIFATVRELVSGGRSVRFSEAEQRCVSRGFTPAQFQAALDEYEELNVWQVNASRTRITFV
UniProt O00258: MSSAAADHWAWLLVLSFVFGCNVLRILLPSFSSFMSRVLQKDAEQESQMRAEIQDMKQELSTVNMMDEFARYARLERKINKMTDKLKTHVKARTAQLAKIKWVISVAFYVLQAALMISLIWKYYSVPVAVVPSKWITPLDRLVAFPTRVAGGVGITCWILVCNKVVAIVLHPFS
UniProt P55061, whole entry: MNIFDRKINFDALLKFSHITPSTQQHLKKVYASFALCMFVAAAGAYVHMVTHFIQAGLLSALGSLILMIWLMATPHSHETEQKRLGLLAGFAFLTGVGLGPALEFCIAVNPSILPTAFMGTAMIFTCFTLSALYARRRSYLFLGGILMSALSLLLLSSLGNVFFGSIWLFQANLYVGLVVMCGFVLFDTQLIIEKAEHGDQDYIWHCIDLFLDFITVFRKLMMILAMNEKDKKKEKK
UniProt O75879: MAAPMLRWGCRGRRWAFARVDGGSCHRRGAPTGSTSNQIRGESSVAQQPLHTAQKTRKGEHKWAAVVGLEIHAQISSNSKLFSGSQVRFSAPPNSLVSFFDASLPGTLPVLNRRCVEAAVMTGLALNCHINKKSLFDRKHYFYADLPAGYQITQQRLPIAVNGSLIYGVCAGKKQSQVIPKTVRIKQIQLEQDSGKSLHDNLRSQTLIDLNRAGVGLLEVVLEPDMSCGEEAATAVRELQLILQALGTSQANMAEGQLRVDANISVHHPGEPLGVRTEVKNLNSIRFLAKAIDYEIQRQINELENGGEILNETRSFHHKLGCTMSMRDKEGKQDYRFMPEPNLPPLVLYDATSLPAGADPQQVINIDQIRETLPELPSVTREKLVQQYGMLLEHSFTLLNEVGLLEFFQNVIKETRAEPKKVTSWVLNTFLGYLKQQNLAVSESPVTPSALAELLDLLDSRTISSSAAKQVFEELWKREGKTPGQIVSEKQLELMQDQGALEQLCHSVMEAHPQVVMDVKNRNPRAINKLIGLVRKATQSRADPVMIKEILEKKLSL
UniProt P08572: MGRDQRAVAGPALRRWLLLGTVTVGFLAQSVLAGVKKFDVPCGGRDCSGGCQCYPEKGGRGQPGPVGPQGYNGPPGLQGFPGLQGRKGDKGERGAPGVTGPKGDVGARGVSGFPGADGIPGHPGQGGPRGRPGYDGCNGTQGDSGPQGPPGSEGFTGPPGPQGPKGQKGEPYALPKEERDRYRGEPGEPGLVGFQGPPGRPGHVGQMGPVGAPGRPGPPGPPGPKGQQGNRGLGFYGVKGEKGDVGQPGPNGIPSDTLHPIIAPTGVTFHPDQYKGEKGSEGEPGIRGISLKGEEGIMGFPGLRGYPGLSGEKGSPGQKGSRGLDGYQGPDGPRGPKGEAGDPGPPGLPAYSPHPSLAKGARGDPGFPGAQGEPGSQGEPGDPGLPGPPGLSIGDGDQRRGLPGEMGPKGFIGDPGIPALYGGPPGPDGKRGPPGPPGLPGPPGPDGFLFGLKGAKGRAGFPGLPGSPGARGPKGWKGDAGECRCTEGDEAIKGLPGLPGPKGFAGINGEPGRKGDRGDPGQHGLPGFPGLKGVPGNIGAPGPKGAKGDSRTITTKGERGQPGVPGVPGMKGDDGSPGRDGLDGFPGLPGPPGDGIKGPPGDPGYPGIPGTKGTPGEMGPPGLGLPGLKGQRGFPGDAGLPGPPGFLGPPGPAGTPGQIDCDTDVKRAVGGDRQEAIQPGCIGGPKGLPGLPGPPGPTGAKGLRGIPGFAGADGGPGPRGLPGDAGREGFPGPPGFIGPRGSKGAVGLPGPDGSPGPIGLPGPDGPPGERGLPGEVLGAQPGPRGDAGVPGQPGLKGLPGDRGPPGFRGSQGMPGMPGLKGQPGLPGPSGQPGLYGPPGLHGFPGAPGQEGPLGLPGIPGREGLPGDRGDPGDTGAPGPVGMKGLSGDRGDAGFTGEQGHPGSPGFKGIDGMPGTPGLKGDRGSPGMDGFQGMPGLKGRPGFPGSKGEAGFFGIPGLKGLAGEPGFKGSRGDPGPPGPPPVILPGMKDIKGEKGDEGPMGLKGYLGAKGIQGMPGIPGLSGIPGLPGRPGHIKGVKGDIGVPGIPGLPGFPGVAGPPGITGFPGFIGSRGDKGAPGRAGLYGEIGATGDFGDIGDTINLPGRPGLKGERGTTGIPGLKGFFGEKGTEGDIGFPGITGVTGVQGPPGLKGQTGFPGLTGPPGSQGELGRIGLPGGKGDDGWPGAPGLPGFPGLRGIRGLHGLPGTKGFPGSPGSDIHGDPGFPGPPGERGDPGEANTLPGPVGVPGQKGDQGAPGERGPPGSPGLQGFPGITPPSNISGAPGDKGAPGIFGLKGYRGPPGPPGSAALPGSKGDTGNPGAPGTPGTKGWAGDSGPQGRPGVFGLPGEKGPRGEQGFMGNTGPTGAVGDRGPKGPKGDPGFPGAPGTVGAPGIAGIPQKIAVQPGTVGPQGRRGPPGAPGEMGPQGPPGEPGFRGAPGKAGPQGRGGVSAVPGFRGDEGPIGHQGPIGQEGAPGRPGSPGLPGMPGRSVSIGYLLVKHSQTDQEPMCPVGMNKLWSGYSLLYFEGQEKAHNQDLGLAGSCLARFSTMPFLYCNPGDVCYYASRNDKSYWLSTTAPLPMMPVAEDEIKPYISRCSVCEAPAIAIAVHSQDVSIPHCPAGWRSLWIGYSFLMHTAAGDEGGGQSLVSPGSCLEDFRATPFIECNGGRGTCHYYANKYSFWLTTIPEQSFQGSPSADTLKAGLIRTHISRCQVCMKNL
UniProt O43524: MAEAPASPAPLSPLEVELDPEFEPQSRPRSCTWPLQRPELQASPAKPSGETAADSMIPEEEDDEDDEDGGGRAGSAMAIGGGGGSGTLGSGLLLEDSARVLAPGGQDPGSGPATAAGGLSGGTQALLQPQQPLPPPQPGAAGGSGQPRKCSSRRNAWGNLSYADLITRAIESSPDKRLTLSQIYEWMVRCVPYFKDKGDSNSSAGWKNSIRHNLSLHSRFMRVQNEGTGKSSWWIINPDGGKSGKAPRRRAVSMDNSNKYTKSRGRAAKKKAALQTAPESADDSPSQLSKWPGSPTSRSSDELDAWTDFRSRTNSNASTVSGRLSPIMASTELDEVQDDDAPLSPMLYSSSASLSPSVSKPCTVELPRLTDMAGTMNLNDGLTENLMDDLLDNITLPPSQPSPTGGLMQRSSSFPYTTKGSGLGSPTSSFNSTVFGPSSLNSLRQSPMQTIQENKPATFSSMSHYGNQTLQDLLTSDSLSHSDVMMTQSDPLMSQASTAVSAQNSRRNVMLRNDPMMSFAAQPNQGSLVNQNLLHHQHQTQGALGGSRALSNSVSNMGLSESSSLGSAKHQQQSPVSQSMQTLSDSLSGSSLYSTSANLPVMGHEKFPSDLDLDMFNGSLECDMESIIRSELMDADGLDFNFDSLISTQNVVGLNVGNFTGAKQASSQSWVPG
UniProt Q5U5X0: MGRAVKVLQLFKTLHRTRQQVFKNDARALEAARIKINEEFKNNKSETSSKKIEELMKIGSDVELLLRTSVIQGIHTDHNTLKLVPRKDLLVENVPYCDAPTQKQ
UniProt Q96DM3: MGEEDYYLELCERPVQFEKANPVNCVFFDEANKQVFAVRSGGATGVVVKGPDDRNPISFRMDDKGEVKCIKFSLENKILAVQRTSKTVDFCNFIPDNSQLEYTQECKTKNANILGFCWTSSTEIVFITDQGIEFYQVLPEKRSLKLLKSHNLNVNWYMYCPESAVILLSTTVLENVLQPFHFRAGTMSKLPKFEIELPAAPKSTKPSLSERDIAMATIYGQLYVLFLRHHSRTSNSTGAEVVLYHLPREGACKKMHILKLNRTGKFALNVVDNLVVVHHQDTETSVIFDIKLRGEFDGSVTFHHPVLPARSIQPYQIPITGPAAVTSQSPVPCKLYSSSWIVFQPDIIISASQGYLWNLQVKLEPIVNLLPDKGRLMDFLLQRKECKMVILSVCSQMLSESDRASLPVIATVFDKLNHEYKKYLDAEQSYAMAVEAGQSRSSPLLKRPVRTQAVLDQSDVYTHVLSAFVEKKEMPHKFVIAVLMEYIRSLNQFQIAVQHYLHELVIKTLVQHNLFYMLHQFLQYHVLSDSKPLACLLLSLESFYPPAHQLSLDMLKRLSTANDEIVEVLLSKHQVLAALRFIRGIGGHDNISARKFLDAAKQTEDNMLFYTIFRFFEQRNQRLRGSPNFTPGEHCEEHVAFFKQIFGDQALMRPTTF
UniProt Q9P0S9: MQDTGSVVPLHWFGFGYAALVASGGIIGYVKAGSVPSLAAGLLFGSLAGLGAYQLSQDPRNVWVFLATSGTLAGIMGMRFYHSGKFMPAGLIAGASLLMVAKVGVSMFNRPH
UniProt Q9NQP4, whole entry: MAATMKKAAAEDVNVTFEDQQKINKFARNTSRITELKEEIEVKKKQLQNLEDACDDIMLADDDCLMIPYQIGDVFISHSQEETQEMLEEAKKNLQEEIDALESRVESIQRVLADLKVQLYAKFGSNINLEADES

Compound: [O-][N+](C(C1=C(C(O)=C2)NC(C(C=C3)=CC=C3Cl)C4C1C=CC4)=C2Cl)=O
Test: melting temperature shift (compound 7 minus DMSO); higher = compound stabilises the protein
Settings: 10 µM
Procedure: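 Thermal proteome profiling (TMT mass spectrometry) in intact DAOY medulloblastoma cells or DAOY lysates treated with 10 µM compound 7 or DMSO, heated at 10 temperatures from 40.5 to 73.8 °C for 3 min. Melting curves were fitted with the Bioconductor TPP package, and the melting point difference between compound and vehicle is reported per protein (single curve per condition).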

[1] = system: DAOY cell lysate, treatment time: 20 min, 4 °C
[2] = system: intact DAOY cells, treatment time: 90 min, 37 °C

| Target | melting temperature shift [1] [°C] | melting temperature shift [2] [°C] |
| --- | --- | --- |
| PIEZO1 (UniProt Q92508) | -0.0731 |  |
| FNTA (UniProt P49354) | 0.00424 | -0.0515 |
| CCDC43 (UniProt Q96MW1) | 0.685 | -0.0807 |
| GOLGB1 (UniProt Q14789) | 1.14 | 1.24 |
| DMD (UniProt P11532) | -1.41 | 0.622 |
| HSPA5 (UniProt P11021) | 1.09 | -0.652 |
| BPGM (UniProt P07738) | -0.709 | -3.83 |
| ZFP91 (UniProt Q96JP5) | 0.913 | 0.478 |
| RSU1 (UniProt Q15404) | -0.659 | 0.0308 |
| CAND1 (UniProt Q86VP6) | -1.48 | -0.375 |
| FKBP14 (UniProt Q9NWM8) | 2.11 | 0.867 |
| UniProt Q9UBF8 | -1.23 | -1.81 |
| VPS4B (UniProt O75351) | -0.206 | -1.82 |
| CSPG4 (UniProt Q6UVK1) | -0.94 | 3.47 |
| UniProt O43423 |  | 0.363 |
| CNBP (UniProt P62633) | -2.55 |  |
| UniProt Q9BZ95 | 1.19 | 1.28 |
| ST13 (UniProt P50502) | -0.573 | -0.0129 |
| RACK1 (UniProt P63244) | -0.306 | -1.08 |
| TAF2 (UniProt Q6P1X5) | -0.804 | -1.24 |
| MYL6B (UniProt P14649) | -4.53 |  |
| QKI (UniProt Q96PU8) | -0.0993 | -0.905 |
| RPL27 (UniProt P61353) | -0.0959 | -0.169 |
| UniProt Q9H4G4 | 0.863 | -0.61 |
| MCM7 (UniProt P33993) | -0.954 | -0.922 |
| UniProt Q9Y6X5 | 2.05 |  |
| SRP14 (UniProt P37108) | -0.0225 | -0.407 |
| NCS1 (UniProt P62166) | -0.248 | 1.96 |

Two neighbouring entries out of the list so far:

| Target | melting temperature shift [1] [°C] | melting temperature shift [2] [°C] |
| --- | --- | --- |
| TAF2 (UniProt Q6P1X5) | -0.804 | -1.24 |
| MYL6B (UniProt P14649) | -4.53 |  |

Next entries follow:

| Target | melting temperature shift [1] [°C] | melting temperature shift [2] [°C] |
| --- | --- | --- |
| BPHL (UniProt Q86WA6) | 0.454 | 0.522 |
| RPL5 (UniProt P46777) | 0.222 | -0.514 |
| SEC62 (UniProt Q99442) | 0.389 | 1.04 |
| WRB (UniProt O00258) |  | -0.801 |
| BCAP29 (UniProt Q9UHQ4) | 2.67 | 0.195 |
| UBE2A (UniProt P49459) | -0.0898 |  |
| DNAJC9 (UniProt Q8WXX5) | 0.34 | 1.05 |
| UniProt P55061 | 2.03 | -2.1 |
| GATB (UniProt O75879) | 1.39 |  |
| IGF2BP2 (UniProt Q9Y6M1) | -0.508 | 0.188 |
| UniProt Q96DU9 |  | -0.065 |
| UniProt P28161 | -0.135 | 0.158 |
| TRMT1L (UniProt Q7Z2T5) | 0.0989 | -0.994 |
| ERLIN2 (UniProt O94905) | 1.61 | 0.115 |
| UniProt Q86SE5 |  | -1.19 |
| COL4A2 (UniProt P08572) | 1.5 | 0.612 |
| MTMR6 (UniProt Q9Y217) | -0.243 | -0.315 |
| FOXO3 (UniProt O43524) | 1.14 |  |
| LYRM7 (UniProt Q5U5X0) | 0.34 | -0.318 |
| TP53RK (UniProt Q96S44) | -0.268 | -0.697 |
| SNCA (UniProt P37840) | -0.969 |  |
| C18ORF8 (UniProt Q96DM3) | -1.03 | 0.0465 |
| UniProt Q9P0S9 | 2.96 |  |
| UniProt Q86X95 | 7.25 |  |
| SNX9 (UniProt Q9Y5X1) | -0.312 | -0.771 |
| MRPS12 (UniProt O15235) | 0.298 | -1.32 |
| PFDN4 (UniProt Q9NQP4) |  | -0.683 |
